The test concerns patients with acute non-cardioembolic ischemic stroke. The following applies: in vivo.

Where “and” joins values, the source holds several entries; their conditions need not be identical. Equal values may be shown once.

As to `CC[C@@H](C(=O)Nc1ccc(C(N)=O)c(F)c1)n1cc(OC)c(-c2cc(Cl)ccc2-n2cc(C(F)(F)F)nn2)cc1=O` [Compound A, (4S)-2^4-chloro-4-ethyl-7^3-fluoro-3^5-methoxy-3^2,5-dioxo-14-(trifluoromethyl)-3^2H-6-aza-3(4,1)-pyridina-1(1)-[1,2,3]triazola-2(1,2),7(1)-dibenzenaheptaphane-7^4-carboxamide], the “Incident covert brain infarcts on MRI, n participants” value is 63 and 74; the “Recurrent symptomatic ischemic stroke, incident covert brain infarct on MRI, cardiovascular death, myocardial infarction and systemic embolism, n participants” value was 80 and 87 and 81; the “Recurrent symptomatic ischemic stroke, vascular death, or myocardial infarction, % participants” value is given as “(7%)”; the “Recurrent symptomatic ischemic stroke, vascular death, or myocardial infarction, n participants” value is 33 and 30.

Source of the values: patent US20240316019A1 (Bayer Aktiengesellschaft, priority 2023, published 2024).
